## Drug screen on melanoma cell lines: apoptosis marker

Source: doi:10.1371/journal.pone.0140310, primary screening data, rounded.

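Human melanoma cell lines in 1,536-well plates were treated with two drugs together for 72 h, then fixed, stained and imaged. Each value is the cleaved-PARP-positive fraction of nuclei relative to DMSO-treated wells, in %, so that 100 equals the control and higher values mean more apoptosis. Concentrations were fixed for each drug; these are the higher of two levels. These are primary screening values without error estimates. Basal and induced levels differ widely between cell lines.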
An unselected part of the screen is shown.
An entry leaves out what has no value listed here.
A dash means that no value is listed here.

All values are for the listed drug together with nilutamide (5 µM): CC1(C)NC(=O)N(c2ccc([N+](=O)[O-])c(C(F)(F)F)c2)C1=O

Partner,A2058,UACC-257,COLO 800,SK-MEL-30,SK-MEL-28,IPC-298,IST-MEL1,SK-MEL-2,MZ2-MEL,A375,WM115,MEL-HO,WM1745,UACC-62,G-361
Cc1nc(Nc2ncc(C(=O)Nc3c(C)cccc3Cl)s2)cc(N2CCN(CCO)CC2)n1 at 0.02 µM,187,38.9,100,94.0,46.0,91.5,314,126,127,-,342,190,140,218,44.6
Cc1cc(SCc2sc(-c3ccc(C(F)(F)F)c(F)c3)nc2C)ccc1OCC(=O)O at 10 µM,70.6,27.7,275,152,38.3,77.5,32.3,67.1,77.4,130,226,51.2,96.3,105,65.6
O=c1cc(-c2cccc3c2Sc2ccccc2S3)oc(N2CCOCC2)c1 at 5 µM,101,37.6,262,64.0,58.5,45.0,104,110,74.8,168,87.2,107,103,47.0,106
Cn1cncc1[C@@](N)(c1ccc(Cl)cc1)c1ccc2c(c1)c(-c1cccc(Cl)c1)cc(=O)n2C at 0.05 µM,270,75.4,124,71.1,168,44.2,43.2,219,250,-,98.0,76.2,108,96.8,150
CC(C)C[C@H](NC(=O)[C@H](Cc1ccccc1)NC(=O)c1cnccn1)B(O)O at 0.005 µM,2090,161,174,1160,777,16700,527,249,-,-,2770,503,429,205,11400
Cn1c(Nc2ccc(C(F)(F)F)cc2)nc2cc(Oc3ccnc(-c4ncc(C(F)(F)F)[nH]4)c3)ccc21 at 0.4 µM,235,83.2,85.6,246,234,144,145,50.5,353,-,1550,106,183,130,477
CS(=O)(=O)c1ccc(C(=O)Nc2ccc(Cl)c(-c3ccccn3)c2)c(Cl)c1 at 5 µM,83.2,44.1,85.1,119,25.6,98.9,249,141,64.3,-,47.7,48.6,80.5,80.8,178
Nc1cccc2c1CN(C1CCC(=O)NC1=O)C2=O (stereo not shown) at 5 µM,55.7,94.5,176,101,151,69.9,68.1,39.1,116,-,81.7,69.8,76.6,120,56.8
C[C@@H](Oc1cc(-c2cnn(C3CCNCC3)c2)cnc1N)c1c(Cl)ccc(F)c1Cl at 1 µM,186,52.6,103,114,145,51.3,156,245,151,-,392,37.9,121,124,205
CC(C)(C)c1cnc(CSc2cnc(NC(=O)C3CCNCC3)s2)o1 at 0.05 µM,133,135,281,75.4,257,359,118,263,217,-,131,36.5,112,166,149
C=C(c1ccc(C(=O)O)cc1)c1cc2c(cc1C)C(C)(C)CCC2(C)C at 10 µM,37.8,80.8,53.9,91.0,154,50.3,254,100,165,-,61.3,67.7,97.2,151,98.0
COc1ccc(-c2ccc3c(N4CCOCC4)nc(N4C[C@@H](C)O[C@@H](C)C4)nc3n2)cc1CO at 0.1 µM,84.5,25.1,112,74.0,93.0,116,50.1,70.4,46.9,73.9,59.6,87.4,114,251,31.0
OCCn1cc(-c2cnc3nnn(Cc4ccc5ncccc5c4)c3n2)cn1 at 5 µM,55.8,32.6,83.3,65.1,284,78.0,87.4,196,62.9,-,112,139,115,133,192
CO[C@H]1C[C@@H]2CC[C@@H](C)[C@@](O)(O2)C(=O)C(=O)N2CCCC[C@H]2C(=O)O[C@H]([C@H](C)C[C@@H]2CC[C@@H](OCCO)[C@H](OC)C2)CC(=O)[C@H](C)/C=C(\C)[C@@H](O)[C@@H](OC)C(=O)[C@H](C)C[C@H](C)/C=C/C=C/C=C/1C at 0.1 µM,119,69.2,77.3,126,253,140,258,167,223,-,453,97.9,90.0,201,237
O=C(/C=C/c1cccnc1)NCCCCC1CCN(C(=O)c2ccccc2)CC1 at 0.05 µM,38.1,34.2,244,79.2,64.9,168,291,1450,1150,-,42.8,139,78.1,130,11300
Clc1ccc(Nc2nnc(Cc3ccncc3)c3ccccc23)cc1 at 10 µM,95.6,150,128,212,106,46.3,245,29.0,167,-,88.7,222,153,142,307
Cn1nnc2c(C(N)=O)ncn2c1=O at 10 µM,329,101,76.0,330,119,40.1,223,71.3,80.9,-,152,241,84.0,126,77.0
O=C(O)c1ccc(-c2c[nH]c3ncc(-c4ccccc4)cc23)cc1C1CCCC1 at 0.8 µM,146,61.3,195,99.2,213,88.0,287,231,118,-,72.6,205,92.6,133,107
CC(C)CCN1c2nc(Nc3cc(F)c(O)c(F)c3)ncc2N(C)C(=O)C1C (stereo not shown) at 1 µM,291,33.3,162,63.1,77.4,175,32.5,88.3,78.1,63.0,129,219,218,79.2,79.5
CN1CCN(c2ccc3nc(-c4c(N)c5c(F)cccc5[nH]c4=O)[nH]c3c2)CC1 at 0.5 µM,318,62.6,100,97.5,75.9,45.1,70.9,128,132,-,146,252,232,113,282
CN(c1ncccc1CNc1nc(Nc2ccc3c(c2)CC(=O)N3)ncc1C(F)(F)F)S(C)(=O)=O at 0.4 µM,146,76.9,110,64.9,81.7,148,93.2,92.9,208,-,174,37.9,116,104,76.0
Cn1cc(C2=C(c3cn(C4CCN(Cc5ccccn5)CC4)c4ccccc34)C(=O)NC2=O)c2ccccc21 at 4 µM,133,151,74.0,33.2,479,32.0,200,638,82.3,-,41.6,75.8,151,138,50.8
O=C(Nc1ccccc1)c1cc([N+](=O)[O-])ccc1Cl at 10 µM,138,49.2,95.6,116,158,202,69.3,172,210,78.3,155,49.3,275,144,103

The first 2 entries again:

{"partner": "Cc1nc(Nc2ncc(C(=O)Nc3c(C)cccc3Cl)s2)cc(N2CCN(CCO)CC2)n1 at 0.02 µM", "A2058": 187, "UACC-257": 38.9, "COLO 800": 100, "SK-MEL-30": 94.0, "SK-MEL-28": 46.0, "IPC-298": 91.5, "IST-MEL1": 314, "SK-MEL-2": 126, "MZ2-MEL": 127, "WM115": 342, "MEL-HO": 190, "WM1745": 140, "UACC-62": 218, "G-361": 44.6}
{"partner": "Cc1cc(SCc2sc(-c3ccc(C(F)(F)F)c(F)c3)nc2C)ccc1OCC(=O)O at 10 µM", "A2058": 70.6, "UACC-257": 27.7, "COLO 800": 275, "SK-MEL-30": 152, "SK-MEL-28": 38.3, "IPC-298": 77.5, "IST-MEL1": 32.3, "SK-MEL-2": 67.1, "MZ2-MEL": 77.4, "A375": 130, "WM115": 226, "MEL-HO": 51.2, "WM1745": 96.3, "UACC-62": 105, "G-361": 65.6}